Results on eight molecules are retold here after article doi:10.1101/2020.06.08.139816.

The chains behind the UniProt entries cited, without tags or fusion partners. Where a name states a change or a piece, a line headed by the entry shows the natural chain unless it says otherwise. Residues count along the entry.
UniProt O62526: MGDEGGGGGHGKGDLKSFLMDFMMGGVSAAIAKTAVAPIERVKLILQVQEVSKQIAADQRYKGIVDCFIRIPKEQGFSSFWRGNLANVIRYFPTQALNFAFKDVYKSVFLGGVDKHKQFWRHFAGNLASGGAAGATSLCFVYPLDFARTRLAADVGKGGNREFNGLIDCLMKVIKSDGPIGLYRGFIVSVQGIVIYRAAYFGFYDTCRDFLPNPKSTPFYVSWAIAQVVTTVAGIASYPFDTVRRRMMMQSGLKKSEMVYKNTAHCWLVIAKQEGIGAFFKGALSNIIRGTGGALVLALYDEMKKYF
UniProt P10040, residues 84-2146: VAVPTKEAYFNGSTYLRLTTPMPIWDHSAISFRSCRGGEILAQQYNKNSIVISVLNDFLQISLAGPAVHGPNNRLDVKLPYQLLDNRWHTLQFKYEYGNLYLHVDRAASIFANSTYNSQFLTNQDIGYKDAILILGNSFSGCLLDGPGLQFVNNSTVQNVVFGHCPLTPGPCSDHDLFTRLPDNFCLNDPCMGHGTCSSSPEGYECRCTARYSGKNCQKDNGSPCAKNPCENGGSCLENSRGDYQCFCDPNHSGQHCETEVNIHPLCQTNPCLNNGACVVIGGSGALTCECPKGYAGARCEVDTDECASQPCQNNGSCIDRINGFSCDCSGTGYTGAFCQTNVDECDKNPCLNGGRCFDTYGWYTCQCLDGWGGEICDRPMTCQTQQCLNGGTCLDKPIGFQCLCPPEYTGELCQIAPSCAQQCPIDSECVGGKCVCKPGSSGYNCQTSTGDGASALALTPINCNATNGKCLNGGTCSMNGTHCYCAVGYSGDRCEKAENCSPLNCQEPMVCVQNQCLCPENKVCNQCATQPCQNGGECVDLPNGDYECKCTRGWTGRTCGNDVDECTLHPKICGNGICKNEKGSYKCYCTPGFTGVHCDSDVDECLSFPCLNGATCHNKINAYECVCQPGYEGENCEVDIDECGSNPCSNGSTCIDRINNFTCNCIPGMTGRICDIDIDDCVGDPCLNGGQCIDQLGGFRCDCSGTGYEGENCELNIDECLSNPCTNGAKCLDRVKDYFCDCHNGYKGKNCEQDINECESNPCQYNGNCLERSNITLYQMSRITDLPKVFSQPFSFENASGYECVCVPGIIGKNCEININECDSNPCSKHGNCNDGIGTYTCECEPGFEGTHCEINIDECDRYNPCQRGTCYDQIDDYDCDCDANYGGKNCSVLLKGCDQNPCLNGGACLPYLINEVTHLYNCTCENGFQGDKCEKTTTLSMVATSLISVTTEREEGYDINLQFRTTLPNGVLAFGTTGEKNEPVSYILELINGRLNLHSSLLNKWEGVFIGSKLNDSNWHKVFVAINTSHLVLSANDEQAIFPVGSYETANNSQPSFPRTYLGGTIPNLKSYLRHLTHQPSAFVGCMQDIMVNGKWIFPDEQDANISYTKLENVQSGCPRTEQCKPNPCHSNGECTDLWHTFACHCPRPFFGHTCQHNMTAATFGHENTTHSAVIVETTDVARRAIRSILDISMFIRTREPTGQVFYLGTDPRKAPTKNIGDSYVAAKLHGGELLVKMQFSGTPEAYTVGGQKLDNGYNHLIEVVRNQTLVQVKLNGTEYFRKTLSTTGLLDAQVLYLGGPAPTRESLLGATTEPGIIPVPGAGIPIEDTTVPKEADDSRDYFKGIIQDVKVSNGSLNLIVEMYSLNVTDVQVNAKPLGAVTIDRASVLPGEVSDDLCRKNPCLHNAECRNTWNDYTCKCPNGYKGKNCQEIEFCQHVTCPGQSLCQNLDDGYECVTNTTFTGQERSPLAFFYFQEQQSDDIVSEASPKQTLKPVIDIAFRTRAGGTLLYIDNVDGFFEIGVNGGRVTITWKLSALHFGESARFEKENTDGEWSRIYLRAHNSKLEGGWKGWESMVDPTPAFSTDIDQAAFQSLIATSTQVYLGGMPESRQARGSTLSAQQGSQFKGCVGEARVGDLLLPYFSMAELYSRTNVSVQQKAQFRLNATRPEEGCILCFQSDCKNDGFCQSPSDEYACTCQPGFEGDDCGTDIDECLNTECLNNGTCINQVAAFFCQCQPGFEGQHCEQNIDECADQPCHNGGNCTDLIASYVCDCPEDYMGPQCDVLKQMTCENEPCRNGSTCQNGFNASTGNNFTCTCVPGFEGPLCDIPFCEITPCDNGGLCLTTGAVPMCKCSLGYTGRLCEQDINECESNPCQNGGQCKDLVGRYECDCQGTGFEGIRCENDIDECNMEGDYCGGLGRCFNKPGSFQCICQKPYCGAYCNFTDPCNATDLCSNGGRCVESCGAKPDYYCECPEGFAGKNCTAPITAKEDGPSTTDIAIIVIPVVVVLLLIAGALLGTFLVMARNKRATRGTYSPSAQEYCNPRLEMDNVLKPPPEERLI
UniProt P17210: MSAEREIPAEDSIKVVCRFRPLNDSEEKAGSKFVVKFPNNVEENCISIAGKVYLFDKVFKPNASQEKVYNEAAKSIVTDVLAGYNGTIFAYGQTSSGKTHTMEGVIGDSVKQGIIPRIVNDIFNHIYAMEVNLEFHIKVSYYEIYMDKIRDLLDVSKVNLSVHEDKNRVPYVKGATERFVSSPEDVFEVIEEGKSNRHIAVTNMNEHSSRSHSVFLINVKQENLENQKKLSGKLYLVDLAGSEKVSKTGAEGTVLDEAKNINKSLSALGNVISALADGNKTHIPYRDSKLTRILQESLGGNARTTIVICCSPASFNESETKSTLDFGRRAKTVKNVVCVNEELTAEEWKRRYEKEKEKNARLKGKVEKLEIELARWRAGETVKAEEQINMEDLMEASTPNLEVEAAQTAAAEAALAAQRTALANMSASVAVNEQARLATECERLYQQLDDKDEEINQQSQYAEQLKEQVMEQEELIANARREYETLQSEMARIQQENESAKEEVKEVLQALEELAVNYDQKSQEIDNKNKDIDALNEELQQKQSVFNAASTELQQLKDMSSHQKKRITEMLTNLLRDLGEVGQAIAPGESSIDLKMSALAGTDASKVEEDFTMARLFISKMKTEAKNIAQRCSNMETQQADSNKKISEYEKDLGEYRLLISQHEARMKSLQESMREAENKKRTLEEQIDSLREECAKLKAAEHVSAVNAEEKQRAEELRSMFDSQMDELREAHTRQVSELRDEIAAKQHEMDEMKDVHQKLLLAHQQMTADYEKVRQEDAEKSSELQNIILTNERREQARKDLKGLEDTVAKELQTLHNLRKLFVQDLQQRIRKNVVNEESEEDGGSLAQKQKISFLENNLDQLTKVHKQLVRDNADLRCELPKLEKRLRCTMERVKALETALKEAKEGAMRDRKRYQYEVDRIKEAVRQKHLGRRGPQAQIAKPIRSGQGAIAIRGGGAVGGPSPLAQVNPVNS
UniProt P46824: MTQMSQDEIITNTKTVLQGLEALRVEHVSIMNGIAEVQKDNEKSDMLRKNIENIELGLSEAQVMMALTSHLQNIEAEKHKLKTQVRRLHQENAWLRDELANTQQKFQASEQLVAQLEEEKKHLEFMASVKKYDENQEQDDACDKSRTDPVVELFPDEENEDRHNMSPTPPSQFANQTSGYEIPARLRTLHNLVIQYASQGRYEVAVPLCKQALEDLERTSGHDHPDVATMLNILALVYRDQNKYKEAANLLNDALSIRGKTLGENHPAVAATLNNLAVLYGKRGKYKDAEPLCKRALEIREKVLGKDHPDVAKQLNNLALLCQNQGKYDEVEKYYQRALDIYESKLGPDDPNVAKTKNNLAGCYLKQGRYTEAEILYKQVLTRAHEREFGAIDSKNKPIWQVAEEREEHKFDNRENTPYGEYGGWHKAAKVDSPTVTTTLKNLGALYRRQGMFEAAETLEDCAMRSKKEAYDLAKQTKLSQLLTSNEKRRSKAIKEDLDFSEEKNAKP

No constants are given. Whether binding was seen depends on the method and setting. Binding seen in cells or lysates may run through a third protein. These calls come from enrichment with a bait or labelling near it, and not all partners need be listed. No binding means not detected with the bait. Sequences can lack the tags named with a protein.

The chains are these.
T1: Mms19::eGFP (Drosophila) (UniProt Q95U54)
T1 sequence: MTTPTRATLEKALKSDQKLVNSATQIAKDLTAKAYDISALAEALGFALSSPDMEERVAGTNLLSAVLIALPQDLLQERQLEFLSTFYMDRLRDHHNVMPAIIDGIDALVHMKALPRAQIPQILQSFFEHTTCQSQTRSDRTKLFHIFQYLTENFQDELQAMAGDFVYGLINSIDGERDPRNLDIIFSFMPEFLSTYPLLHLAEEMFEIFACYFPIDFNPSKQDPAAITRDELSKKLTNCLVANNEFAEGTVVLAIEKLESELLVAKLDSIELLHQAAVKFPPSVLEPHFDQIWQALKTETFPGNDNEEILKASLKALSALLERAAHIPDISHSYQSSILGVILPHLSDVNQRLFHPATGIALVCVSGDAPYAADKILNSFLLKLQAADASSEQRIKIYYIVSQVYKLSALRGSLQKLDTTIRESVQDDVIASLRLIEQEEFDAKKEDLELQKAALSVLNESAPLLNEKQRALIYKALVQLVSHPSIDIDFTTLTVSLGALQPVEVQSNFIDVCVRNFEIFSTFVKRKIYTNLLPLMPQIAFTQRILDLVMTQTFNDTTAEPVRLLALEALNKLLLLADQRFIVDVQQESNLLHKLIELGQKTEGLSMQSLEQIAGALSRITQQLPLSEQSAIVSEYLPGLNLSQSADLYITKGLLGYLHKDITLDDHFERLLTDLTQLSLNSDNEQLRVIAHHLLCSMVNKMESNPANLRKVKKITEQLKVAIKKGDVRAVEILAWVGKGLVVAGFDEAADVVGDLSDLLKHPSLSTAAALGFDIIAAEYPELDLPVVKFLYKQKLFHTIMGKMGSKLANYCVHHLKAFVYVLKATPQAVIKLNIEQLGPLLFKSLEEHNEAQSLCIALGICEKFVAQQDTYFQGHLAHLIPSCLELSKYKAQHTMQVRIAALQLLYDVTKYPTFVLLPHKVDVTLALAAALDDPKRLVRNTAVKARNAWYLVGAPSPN

B1: Mip18 (protein, UniProt Q9VTC4 1-156)
chain: MPTEIENINPNVYDRIKERVLTANEEDENVPDPFDKREIFDLIRNINDPEHPLTLEELHVVQEDLIRINDSQNSVHISFTPTIPHCSMATLIGLSIRVKLLRSLPPRFKVTVEITPGTHASELAVNKQLADKERVAAALENNHLAEVINQCIAAKG
B2: Lis-1 (protein, UniProt Q7KNS3 1-411)
chain: MKMVLSQRQREELNQAIADYLGSNGYADSLETFRKEADLSTEVEKKFGGLLEKKWTSVIRLQKKVMELEAKLTEAEKEVIEGAPTKNKRTPGEWIPRPPEKFSLTGHRASITRVIFHPIFALMVSASEDATIRIWDFETGEYERSLKGHTDSVQDVAFDAQGKLLASCSADLSIKLWDFQQSYECIKTMHGHDHNVSSVAFVPAGDYVLSASRDRTIKMWEVATGYCVKTYTGHREWVRMVRVHIEGSIFATCSNDQTIRVWLTNSKDCKVELRDHEHTVECIAWAPEAAASAINEAAGADNKKGHHQGPFLASGSRDKTIRIWDVSVGLCLLTLSGHDNWVRGLAFHPGGKYLVSASDDKTIRVWDLRNKRCMKTLYAHQHFCTSIDFHKAHPYVISGSVDQTVKVWECR
B3: Ciao1 (protein, UniProt Q7K1Y4 1-335)
chain: MGRLILEHTLQGHKGRIWGVAWHPKGNVFASCGEDKAIRIWSLTGNTWSTKTILSDGHKRTIREIRWSPCGQYLASASFDATTAIWSKSSGEFECNATLEGHENEVKSVSWSRSGGLLATCSRDKSVWIWEVAGDDEFECAAVLNPHTQDVKRVVWHPTKDILASASYDNTIKMFAEEPIDNDWDCTATLTSHTSTVWGIDFDADGERLVSCSDDTTIKIWRAYHPGNTAGVATPDQQTVWKCVCTVSGQHSRAIYDVSWCKLTGLIATACGDDGIRIFKESSDSKPDEPTFEQITAEEGAHDQDVNSVQWNPVVAGQLISCSDDGTIKIWKVTE

The target in the assay is T1, Mms19::eGFP (Drosophila). The assay can be described thus: affinity purification with mass spectrometry.
For Ant2 (from UniProt O62526), the binding entry is recorded as “binds”.
Regarding Crumbs (from UniProt P10040 84-2146), the binding entry is “no binding”.
Take “Kinesin heavy chain (from UniProt P17210 1-975)”: the binding result is given as “binds”.
Take “Kinesin light chain (from UniProt P46824 1-508)”: the binding entry is recorded as “binds”.
Next, “Klp3a (Drosophila (endogenous in adult flies))”: “no binding”.
Next, B1: “binds”; B2: “binds”.
As for B3, the binding result is recorded as “binds”.
